# Assay results: PubChem BioAssay AID1347426 (Functional Genomics Laboratory (NCATS/FGL), 2020)
# The campaign covered roughly 31,000 sequences. About 1,400 (4.5%) were called active.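 Rule for the calls: active = median seed-adjusted z-score above 1 or below -1; inactive = the rest.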 The list shows a part of the results.
# Assay: Novel Modifiers of Survival Motor Neuron (SMN) Protein: Gene Identification via Genome-wide siRNA Screen;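 note: luminescence tracks full-length SMN protein made from the SMN2 reporter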
# Conditions: HEK293T SMN2-luciferase reporter, siRNA knockdown, 72 h; actives lie on both sides
# How it was run: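 siRNA screen, 10418 genes ×3 siRNAs; 1 pmol/well, lipid reverse transfection into HEK293T SMN2-luc reporter line. 72 h, 37 °C, 5% CO2; ONE-Glo readout. Data: neg-ctrl normalized, log10, MAD; hit = MAD >1.0 or < -1.0.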
row,Sequence,median seed-adjusted z-score
1,UCACACUCAUGGAUCAGAATT against MYL5,inactive: 0.097
2,GAUUGCAUCUGGACCAUUATT against NETO2,inactive: -0.136
3,GGAAAGUUGUGGGUCUAAUTT against SERPINA7,inactive: 0.0925
4,CGACGGUGACUGGUACUUUTT against LGI3,inactive: -0.0189
5,CGAGACCAGCAGUACGAGATT against TNFRSF25,inactive: -0.534
6,GAAUAUAACUCCACAAGAUTT against ST8SIA5,inactive: -0.358
7,GAAUCACCAUUUAAGUGCATT against PDE1C,inactive: 0.157
8,GAUCGUCUUUUCUACAUCUTT against SLC27A1,inactive: 0.253
9,GCUCGUGACUGUAGAUGAATT against CCT8L2,inactive: -0.39
10,GGCUGAUAAAAAUCCACGATT against RICS,inactive: 0.665
11,CCAAGGCUGUCAGACUUCATT against CPSF2,inactive: 0.0263
12,GGCAUUACCUCUGCAGGAATT against IP6K1,inactive: -0.317
13,GCAUGUUAUUGAAUUAUCATT against TM9SF2,active: 1.09
14,GACCAUCAACCUUACUGUATT against HEPACAM,inactive: -0.063
15,CACCUCUAAUCAUCGAUGATT against UAP1,inactive: 0.0411
16,CCAGCGGAAUUGUCAAUGATT against KCNIP2,inactive: 0.415
17,GCAACUACUUCCGAUCUAATT against KIF17,inactive: -0.151
18,CAAUGGAUCGGCUUCCUUATT against ADRA2B,inactive: 0.00853
19,UAAGCAACCUGCUAACUGATT against TMCO6,inactive: -0.227
20,CUAUCCUCCUGUCUGCGAATT against ZNF167,inactive: 0.409
21,GCAUUAGGUUCACUAAAUATT against GPR160,inactive: -0.278
22,CUGUUACAGUGAAACGGAATT against MYNN,inactive: 0.0702
23,AGCUAUUCAGAGCCUGAAATT against ATP5L,inactive: -0.295

row,Sequence,median seed-adjusted z-score
1,GGAAAUUUGUAGCUCAAGUTT against CHRNB3,inactive: -0.0155
2,GGCUGAAUGUAACAGAGGATT against OAZ1,inactive: 0.144
3,CGGACAGAUCGAUUACUCATT against ZNF740,inactive: -0.914
4,GAAAGUCCAGAGGAGUUUATT against ZNF434,inactive: 0.545
5,CCUCGAUAAUAUAACACGATT against FCGRT,inactive: -0.00396
6,GCCUAGCUAUAGUUAGGAATT against RABL2B,inactive: 0.454
7,GAACUCAACUUGGUCUGCATT against RPUSD4,inactive: -0.0264
8,GCCGACUUAUUAAAACUGATT against UBP1,inactive: 0.847
9,GUGAUAAGCUGAGUACUGATT against TIPARP,inactive: 0.372
10,GCGGUGCUCUUAUAUAGCATT against APPBP2,inactive: -0.0432
11,GUAUUAUUAGGGUUACGAATT against PHF21B,inactive: 0.327
12,CAGGCUCACUCGCAAAGAATT against USP31,inactive: -0.755
13,GCCUCCCACUACUUUGAAATT against IL2RB,inactive: 0.333
14,GGCUAACUGUGACUGGAUUTT against OVCH2,inactive: 0.439
15,GCAUCAAGUCCGAACCGAUTT against MEF2A,inactive: -0.0658
16,GAAUACUACCUUGACGGAATT against IL10RB,inactive: 0.167
17,CGAAAUUUCCCGGACCUGATT against CPZ,inactive: -0.0748
18,CUUUUGAACAAAUCCAGAATT against SYT1,inactive: 0.435
19,GAACGAAAGGUCCUCAGUATT against SPATA21,active: -1.03
20,CACUUGACAUGGUUGUGCATT against PIGF,inactive: -0.239
21,UCAUCGUGGUGCUUUCGGATT against SIGIRR,inactive: 0.0269
22,UGAACUACGUGACCGCGAATT against ELAVL1,inactive: 0.316
23,GCACUAGAGCAGUUCCAAUTT against HS2ST1,inactive: 0.421

# In a second layout: results already given
row	Sequence	median seed-adjusted z-score
1	GGAAAUUUGUAGCUCAAGUTT against CHRNB3	inactive: -0.0155
4	GAAAGUCCAGAGGAGUUUATT against ZNF434	inactive: 0.545
5	CCUCGAUAAUAUAACACGATT against FCGRT	inactive: -0.00396
6	GCCUAGCUAUAGUUAGGAATT against RABL2B	inactive: 0.454
7	GAACUCAACUUGGUCUGCATT against RPUSD4	inactive: -0.0264
8	GCCGACUUAUUAAAACUGATT against UBP1	inactive: 0.847
9	GUGAUAAGCUGAGUACUGATT against TIPARP	inactive: 0.372
11	GUAUUAUUAGGGUUACGAATT against PHF21B	inactive: 0.327
13	GCCUCCCACUACUUUGAAATT against IL2RB	inactive: 0.333
15	GCAUCAAGUCCGAACCGAUTT against MEF2A	inactive: -0.0658
16	GAAUACUACCUUGACGGAATT against IL10RB	inactive: 0.167
17	CGAAAUUUCCCGGACCUGATT against CPZ	inactive: -0.0748
18	CUUUUGAACAAAUCCAGAATT against SYT1	inactive: 0.435
20	CACUUGACAUGGUUGUGCATT against PIGF	inactive: -0.239
21	UCAUCGUGGUGCUUUCGGATT against SIGIRR	inactive: 0.0269
22	UGAACUACGUGACCGCGAATT against ELAVL1	inactive: 0.316
23	GCACUAGAGCAGUUCCAAUTT against HS2ST1	inactive: 0.421

# Remaining list, next part.

row,Sequence,median seed-adjusted z-score
1,GGAAGUAAAUGUUGUUUUATT against CCL11,inactive: -0.221
2,CAUGGUCCUUGAUCUCUUUTT against SCNN1B,inactive: 0.585
3,GAUGAUAUUUAUUCACCAATT against ZBTB25,inactive: 0
4,CAACAACCUUACACGAGUATT against LRIG2,inactive: 0.386
5,GAGCAGUACUGGGAAGAGATT against CARD14,inactive: -0.104
6,AGCAGGUUUUGGGAACCAATT against FCN3,inactive: -0.112
7,AGUUUACAGUGACAGCUUATT against CLSTN3,inactive: 0
8,GGAGCACUACGUGCUGUACTT against EFNA2,inactive: -0.314
9,CCAUAGAACGAGCAACCUUTT against CASP5,inactive: 0.655
10,GCAUAAGGUUCAGAGCCUATT against CUX1,inactive: -0.527
11,CUGUGAGAAUAAUCGCUAUTT against PDHA1,inactive: 0.346
12,CAGUCUGAGUGUGAGUACATT against APLNR,inactive: 0.794
13,GAGAAGAUAUUGCAAAAUATT against SLU7,inactive: -0.97
14,GACCUUAGCUUAUCUGGGATT against TUBB4,inactive: 0
15,CCCAUGUACUGCUUCAUCUTT against MC1R,inactive: -0.64
16,GAUAAGCGAUGUCAACAUATT against SYCP1,inactive: -0.0197
17,GCUAAUCAAUUGAUGCUUUTT against SNUPN,inactive: -0.199
18,GUUCCGAGUUUGUUAUACATT against ZNF19,inactive: 0
19,CAUCAGCCCUAUCAACUUATT against SYNPO2L,inactive: -0.47
20,GGAAUAUGCAAGAUUACCATT against MYST4,inactive: 0.138
21,GAAGUUACCUCAUCCUAUUTT against FGD6,inactive: 0.536
22,GGCAAGAAGUACAACUGGATT against GFOD1,inactive: 0.923
